Measurements: patent US20220281976A1
These are yes or no findings as the source states them, for the method shown. Some results given as binding are weak or reduced against the parent protein; the word gives no strength.

By UniProt entry, the sequences of proteins in these tests, tags left out. Where a name states a change or a piece, a line headed by the entry shows the natural chain unless it says otherwise.
UniProt P20138: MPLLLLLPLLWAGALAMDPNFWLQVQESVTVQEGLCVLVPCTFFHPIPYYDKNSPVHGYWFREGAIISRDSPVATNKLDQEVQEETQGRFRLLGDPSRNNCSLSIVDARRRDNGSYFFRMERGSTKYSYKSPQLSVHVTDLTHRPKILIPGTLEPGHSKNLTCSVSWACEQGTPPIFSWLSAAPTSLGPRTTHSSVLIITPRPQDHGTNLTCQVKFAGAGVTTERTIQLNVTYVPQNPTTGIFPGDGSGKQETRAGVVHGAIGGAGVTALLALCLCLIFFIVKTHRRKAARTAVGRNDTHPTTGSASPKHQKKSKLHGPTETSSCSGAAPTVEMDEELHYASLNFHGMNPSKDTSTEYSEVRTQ

Tests used:
[1] = molecular target: human CD33 Fc fusion protein (human) (UniProt P20138); experiment: SPR (BiaCore T200, 25 C), 200 nM antibody over human CD33/Fc chimera immobilised on a CM5 chip, running buffer at pH 7.3, 6.0 or 5.0
[2] = molecular target: human CD33 Fc fusion protein (human) (UniProt P20138); experiment: Biacore SPR, immobilised human CD33/Fc, antibody 200 nM, pH 7.3, 6.0, 5.0
[3] = molecular target: human CD33 Fc fusion protein (human) (UniProt P20138); experiment: red blood cell solid adhesion assay: 25 ug/ml Fab bound to plate-bound CD33-Fc before adding red blood cells; blocked ligand: sialic acid ligands on red blood cells

| binding [1] | binding [2] | binding [3] | Binder |
| --- | --- | --- | --- |
| binds | binds | – | C-44 (antibody, V domains shown) VH: QLQLQESGPGLVKPSETLSLTCTVSGGSISSSSYAWGWIRQPPGKGLEWIGSIYYSGSTYYNPSLKSRVTISVDTSKNQFSLKLSSVTAADTAVYYCAREGYVAAYGMDVWGQGTTVTVSS VL: DIQMTQSPSSLSASVGDRVTITCRASQSISSYLNWYQQKPGKAPKLLIYAASSLQSGVPSRFSGSGSGTDFTLTISSLQPEDFATYYCQQAYYPPWTFGGGTKVEIK |
| – | – | binds | Fab fragment of antibody C-65 (Fab, V domains shown) VH: QVQLVQSGAEVKKPGASVKVSCKASGYTFTSYYMHWVRQAPGQGLEWMGVINPSGGSTSYAQKFQGRVTMTRDTSTSTVYMELSSLRSEDTAVYYCARESQYYDVHGMDVWGQGTTVTVSS VL: DIQMTQSPSSLSASVGDRVTITCRASQSISSYLNWYQQKPGKAPKLLIYAASSLQSGVPSRFSGSGSGTDFTLTISSLQPEDFATYYCQQQYTLPPTFGGGTKVEIK |
